PubChem BioAssay AID1259297 – Sanger Institute | 2017

Test: 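Kinases whose loss kills cells on their own or with targeted drugs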 (primary screen)
System: human RCM1 colorectal cancer cell line
Reagents: siRNA pool against human genes
Challenge: separate arms: DMSO vehicle, or one anchor drug at a mild dose: BYL719 1 µM, cetuximab 5 µg/ml, trametinib 10 nM
Measurement: 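Replicate-mean well viability as a share of non-targeting pool control, a robust z-score without drug, and synergy scores for BYL719, cetuximab and trametinib arms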
Direction: viability z-score, knock-down alone: higher = more viable cells than non-targeting controls; viability, knock-down alone (DMSO): higher = more viable cells
Rule for the call: 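Essential when the viability robust z-score for knock-down alone is below -3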
Calls: active = essential when knocked down alone; inactive = no clear loss of viability alone
In all, the deposit lists 794 reagents; below is an unselected part. 13 of them (1.6%) were called active. 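Calls reflect knock-down without drug only; drug synergy is judged separately, with scores above 0.15 counted as synergy.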 Viability is capped at 1. Further read-outs or replicates are left out here. No sequences are given here. The record does not give: the amount of reagent, the time to read-out.

CDK5 (GeneID 1020)
- viability z-score, knock-down alone: 0.144
- viability, knock-down alone (DMSO) (fraction of control): 0.93
- call: inactive

CDK17 (GeneID 5128)
- viability z-score, knock-down alone: 0.9
- viability, knock-down alone (DMSO) (fraction of control): 1
- call: inactive

SMAD4 (GeneID 4089)
- viability z-score, knock-down alone: -0.763
- viability, knock-down alone (DMSO) (fraction of control): 0.846
- call: inactive

STK35 (GeneID 140901)
- viability z-score, knock-down alone: 0.9
- viability, knock-down alone (DMSO) (fraction of control): 1
- call: inactive

SPEG (GeneID 10290)
- viability z-score, knock-down alone: 0.9
- viability, knock-down alone (DMSO) (fraction of control): 1
- call: inactive

TRIB2 (GeneID 28951)
- viability z-score, knock-down alone: -0.667
- viability, knock-down alone (DMSO) (fraction of control): 0.855
- call: inactive

CDC73 (GeneID 79577)
- viability z-score, knock-down alone: -1.52
- viability, knock-down alone (DMSO) (fraction of control): 0.775
- call: inactive

CDKN1A (GeneID 1026)
- viability z-score, knock-down alone: 0.9
- viability, knock-down alone (DMSO) (fraction of control): 1
- call: inactive

MGA (GeneID 23269)
- viability z-score, knock-down alone: -0.92
- viability, knock-down alone (DMSO) (fraction of control): 0.831
- call: inactive

FGFR4 (GeneID 2264)
- viability z-score, knock-down alone: 0.723
- viability, knock-down alone (DMSO) (fraction of control): 0.984
- call: inactive

ELF3 (GeneID 1999)
- viability z-score, knock-down alone: -0.384
- viability, knock-down alone (DMSO) (fraction of control): 0.881
- call: inactive

PIK3CG (GeneID 5294)
- viability z-score, knock-down alone: -0.0524
- viability, knock-down alone (DMSO) (fraction of control): 0.912
- call: inactive

TNK1 (GeneID 8711)
- viability z-score, knock-down alone: -0.0648
- viability, knock-down alone (DMSO) (fraction of control): 0.91
- call: inactive

CDKL4 (GeneID 344387)
- viability z-score, knock-down alone: -0.489
- viability, knock-down alone (DMSO) (fraction of control): 0.871
- call: inactive

SRMS (GeneID 6725)
- viability z-score, knock-down alone: -0.915
- viability, knock-down alone (DMSO) (fraction of control): 0.832
- call: inactive

BRSK2 (GeneID 9024)
- viability z-score, knock-down alone: 0.9
- viability, knock-down alone (DMSO) (fraction of control): 1
- call: inactive

TJP2 (GeneID 9414)
- viability z-score, knock-down alone: -0.52
- viability, knock-down alone (DMSO) (fraction of control): 0.868
- call: inactive

STRADA (GeneID 92335)
- viability z-score, knock-down alone: 0.9
- viability, knock-down alone (DMSO) (fraction of control): 1
- call: inactive

STK32C (GeneID 282974)
- viability z-score, knock-down alone: 0.9
- viability, knock-down alone (DMSO) (fraction of control): 1
- call: inactive

HUS1 (GeneID 3364)
- viability z-score, knock-down alone: 0.4
- viability, knock-down alone (DMSO) (fraction of control): 0.954
- call: inactive

TESK2 (GeneID 10420)
- viability z-score, knock-down alone: 0.9
- viability, knock-down alone (DMSO) (fraction of control): 1
- call: inactive

TRIO (GeneID 7204)
- viability z-score, knock-down alone: 0.117
- viability, knock-down alone (DMSO) (fraction of control): 0.927
- call: inactive

RPS6KA4 (GeneID 8986)
- viability z-score, knock-down alone: 0.623
- viability, knock-down alone (DMSO) (fraction of control): 0.974
- call: inactive

CSNK2A1 (GeneID 1457)
- viability z-score, knock-down alone: 0.877
- viability, knock-down alone (DMSO) (fraction of control): 0.998
- call: inactive

PIK3CA (GeneID 5290)
- viability z-score, knock-down alone: 0.369
- viability, knock-down alone (DMSO) (fraction of control): 0.951
- call: inactive

CDADC1 (GeneID 81602)
- viability z-score, knock-down alone: 0.9
- viability, knock-down alone (DMSO) (fraction of control): 1
- call: inactive

STK16 (GeneID 8576)
- viability z-score, knock-down alone: -0.136
- viability, knock-down alone (DMSO) (fraction of control): 0.904
- call: inactive

PIK3R3 (GeneID 8503)
- viability z-score, knock-down alone: 0.9
- viability, knock-down alone (DMSO) (fraction of control): 1
- call: inactive

In a second layout: results already given.
Gene,"viability z-score, knock-down alone","viability, knock-down alone (DMSO) (fraction of control)",call
HUS1 (GeneID 3364),0.4,0.954,inactive
TESK2 (GeneID 10420),0.9,1,inactive
